In PubChem BioAssay AID1345085 (National Center for Advancing Translational Sciences (NCATS), 2018):
The inconclusive results got no clear call from the source; some entries with a clear call stand among them for comparison. Potencies of inconclusive entries are doubtful fits and often do not repeat. Activity calls are given as the source filed them. Calls come from the whole dose curve; as a rule, active = well fitted cell-killing curve with a large enough effect; inconclusive = small, poorly fitted or top-dose-only effect, or effect the other way; inactive = no such curve, though single readings can be large or run the other way.
Note: nearly all actives have a fitted effect of over 55% in size.
Potency is the fitted concentration of half-maximal effect.

These compounds were tested on PA-1 (assay: Confirmatory qHTS for gynecologic anti-cancer compounds from libraries of approved drugs and bioactive compounds). Details: gynecologic cancer cell panel viability, ATPlite luminescence, 48 h; series mostly up to 57.6 µM.
Outline: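 Viability is measured as ATP-dependent luciferase light using ATPlite, read 15 min after reagent addition at room temperature. Compounds, in DMSO, span 57.5 uM down to 0.977 nM over 11 threefold steps for 48 h.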
`NC(=O)c1cccc2cn(-c3ccc([C@@H]4CCCNC4)cc3)nc12` was tested, and the Potency was inconclusive: 3.06 µM [cytotoxic, full curve].
For `O=c1c(-c2ccc(O)cc2)coc2cc(O)cc(O)c12`, the Potency was inconclusive: 27.3 µM [cytotoxic, partial curve, poor fit].
In the case of `CCCCN(CCCC)C(=O)CN1C[C@H](c2ccc3c(c2)OCO3)[C@@H](C(=O)O)[C@@H]1c1ccc(OC)cc1`, the Potency is reported as “inactive”.
`COc1ccc(CCC(=O)c2c(O)cc(O[C@@H]3O[C@H](CO)[C@@H](O)[C@H](O)[C@H]3O[C@@H]3O[C@@H](C)[C@H](O)[C@@H](O)[C@H]3O)cc2O)cc1O` was tested, and the Potency was “inactive”.
`CN(C)CCC(CSc1ccccc1)Nc1ccc(S(=O)(=O)NC(=O)c2ccc(N3CCN(Cc4ccccc4-c4ccc(Cl)cc4)CC3)cc2)cc1[N+](=O)[O-]` (configuration not stated) was tested, and the Potency was inconclusive: 43.2 µM [cytotoxic, single point].
`Cc1ccc(C(=O)Nc2ccc(CN3CCN(C)CC3)c(C(F)(F)F)c2)cc1C#Cc1cnc2[nH]ncc2c1` was tested, and the Potency was inconclusive: 0.0863 µM [cytotoxic, full curve].
`Cn1c(=O)c(-c2c(Cl)cccc2Cl)cc2cnc(Nc3cccc(C(=O)O)c3)nc21` was tested, and the Potency was inconclusive: 0.863 µM [cytotoxic, full curve].
With `C[C@@]1(C(=O)Nc2ccc(F)nc2)CCCN1c1nc(Nc2cc(C3CC3)[nH]n2)c2cccn2n1` the Potency was active: 0.0343 µM.
With `O=c1c2ccccc2nc2n1CCc1c-2[nH]c2ccccc12` the Potency was inconclusive: 0.0005 µM.
With `NC1(c2ccc(-c3nc4ccn5c(=O)[nH]nc5c4cc3-c3ccccc3)cc2)CCC1` the Potency was inconclusive: 0.0043 µM [rising, full curve, poor fit].
For `CN1CCN(c2cccc(Nc3nc4c(-c5ccc(S(C)(=O)=O)cc5)cccn4n3)c2)CC1`, the Potency was inconclusive: 24.3 µM [cytotoxic, partial curve, poor fit].
For `Cc1cncc2cccc(S(=O)(=O)N3CCCN(C(=O)CN)C[C@@H]3C)c12`, the Potency was inconclusive: 24.3 µM [cytotoxic, single point].
For `CC(=O)NCC(=O)N1C2CCC1c1cc(Nc3ncc(C(F)(F)F)c(NC4CCC4)n3)ccc12` (configuration not stated), the Potency was active: 0.685 µM.
`CCN[C@H]1C[C@H](C)S(=O)(=O)c2sc(S(N)(=O)=O)cc21` was tested, and the Potency was inconclusive: 0.0086 µM [rising, full curve, poor fit].
With `Cn1cnc2c(F)c(Nc3ccc(Br)cc3F)c(C(=O)NOCCO)cc21` the Potency was inconclusive: 1.37 µM [cytotoxic, full curve].
In the case of `CC1(C)[C@@H](O)CC[C@]2(C)[C@H]3C(=O)C=C4[C@@H]5C[C@@](C)(C(=O)O)CC[C@]5(C)CC[C@@]4(C)[C@]3(C)CC[C@@H]12`, the Potency is reported as inconclusive: 3.43 µM [cytotoxic, single point].
`CS(=O)(=O)c1ccc(-c2cnc(N)c(C(=O)Nc3ccccc3)n2)cc1` was tested, and the Potency was inconclusive: 8.63 µM [cytotoxic, single point].
`CS(=O)(=O)c1ccc(C(=O)Nc2ccc(Cl)c(-c3ccccn3)c2)c(Cl)c1` was tested, and the Potency was inconclusive: 0.685 µM [rising, partial curve, poor fit].
For `COc1ccc(-c2ccc3c(N4CCOCC4C)nc(N4CCOCC4C)nc3n2)cc1CO` (configuration not stated), the Potency was inconclusive: 0.544 µM [cytotoxic, full curve].
In the case of `CCOc1ccc(Nc2nc(-c3c(C)nc4ccccn34)cs2)cc1`, the Potency is reported as inconclusive: 0.0432 µM [cytotoxic, full curve, poor fit].
`O=C(O)C1(Cc2cccc(Nc3nccs3)n2)CCC(Oc2cccc(Cl)c2F)CC1` (configuration not stated) was tested, and the Potency was inconclusive: 0.344 µM [cytotoxic, full curve].
`CCCc1nn(C)c2c(=O)[nH]c(-c3cc(S(=O)(=O)N4CCN(C)CC4)ccc3OCC)nc12` was tested, and the Potency was inconclusive: 0.0172 µM [rising, full curve].
`CCC1=CC2CN(C1)Cc1c([nH]c3ccccc13)[C@@](C(=O)OC)(c1cc3c(cc1OC)N(C)[C@H]1[C@@](O)(C(=O)OC)[C@H](OC(C)=O)[C@]4(CC)C=CCN5CC[C@]31[C@@H]54)C2` (some centres not stated) was tested, and the Potency was active: 0.053 µM.
In the case of `C[C@]12CCC(=O)C=C1[C@@H]1C[C@@H]1[C@H]1[C@@H]3[C@@H]4C[C@@H]4[C@@]4(CCC(=O)O4)[C@@]3(C)CC[C@@H]12`, the Potency is reported as “inactive”.
In the case of `Cc1ccc(NC(=O)c2ccc(CN3CCN(C)CC3)cc2)cc1Nc1nccc(-c2cccnc2)n1`, the Potency is reported as inconclusive: 21.7 µM [cytotoxic, partial curve].
In the case of `COc1cc(F)c(F)c(Nc2ccc(I)cc2F)c1NS(=O)(=O)C1(CC(O)CO)CC1` (configuration not stated), the Potency is reported as “inactive”.
In the case of `Nc1ncn([C@@H]2O[C@H](CO)[C@@H](O)[C@H]2O)c(=O)n1`, the Potency is reported as inconclusive: 0.0069 µM [rising, full curve, poor fit].
